Screen size: about 360,000 compounds; about 11,000 (3.1%) were called active. These results got no clear call from the source, so the numbers are uncertain. No stated cut-off is given here; in the data, active means fluorescence intensity above about 16000; inconclusive means no clear call, values can overlap the other calls; inactive means below that.
assay: counter-screen for toxin protease inhibitors: compound fluorescence, primary screen, artefact control for toxin protease inhibitor project, biochemical, multiplex microsphere, HTS (AID 624483); conditions: compound autofluorescence counterscreen, microsphere flow cytometry

Row | Compound | outcome
1 | O=C(NCC1(N2CCCCC2)CCCCC1)c1cccs1 | inconclusive
2 | CC(C)c1ccc(C(=O)NCC2(N3CCOCC3)CCCCC2)cc1 | inconclusive
3 | Cc1ccc(C(=O)NCC2(N3CCCCC3)CCCCC2)o1 | inconclusive

From PubChem BioAssay AID624483 (NMMLSC, 2012)
